Test results from paper PMC12084551.
Results are given in words; binding and its absence hold for the method and conditions named. Binding calls can cover weak binding; strength is not graded here.

Amino acid sequences for entries named in this document (tags omitted). A change or cut given only in a name is not applied to a line headed by its entry.
UniProt Q2XVP4: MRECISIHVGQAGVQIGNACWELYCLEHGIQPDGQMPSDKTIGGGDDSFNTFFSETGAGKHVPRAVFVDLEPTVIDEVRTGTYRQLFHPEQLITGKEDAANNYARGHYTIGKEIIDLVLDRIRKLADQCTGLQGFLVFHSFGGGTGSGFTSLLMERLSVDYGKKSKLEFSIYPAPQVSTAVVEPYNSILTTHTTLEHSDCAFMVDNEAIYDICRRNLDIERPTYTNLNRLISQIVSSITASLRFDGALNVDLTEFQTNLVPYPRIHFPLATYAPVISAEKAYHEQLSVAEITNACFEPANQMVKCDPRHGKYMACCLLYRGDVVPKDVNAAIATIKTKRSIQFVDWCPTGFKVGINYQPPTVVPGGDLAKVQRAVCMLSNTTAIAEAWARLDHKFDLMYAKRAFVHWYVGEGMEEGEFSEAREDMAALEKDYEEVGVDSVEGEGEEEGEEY

Molecular target: α-tubulin (porcine brain, in the microtubule) (pig (porcine brains)) (UniProt Q2XVP4)
Experiment: cryo-EM structure; 0.5 μM GMPCPP-microtubules on the grid, 5 μM GAS2-GAR in BRB80 added twice; 14-protofilament microtubules, MiRP/RELION and CryoSPARC; both purified

**Q.** With “GAS2-GAR domain (residues 198–314) (from UniProt P11862 198-314) (domain or fragment)” as the substance, how does the binding read?
**A.** Its binding is “binds”.
